In PubChem BioAssay AID445 (National Center for Advancing Translational Sciences (NCATS), 2006) one finds AC50 data, which are given here for 38 compounds.

Some of the results follow. Further columns of the screen follow, without active or inactive calls. The list favours compounds with an active or inconclusive main result. Potencies come from curve fits of mixed quality, noted in brackets.

The assay in a line: IkB Signaling. Conditions: ABC-DLBCL IkBa-CBG/CBR dual luciferase ratio (green luciferase fused to IkBa over red control in OCI-Ly3 lymphoma cells), 4 h. The gist of the method:
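In this assay, an IκBα–CBG68 fusion accumulates when IKK-driven degradation is blocked; native CBR normalizes for cell number. OCI-Ly3 cells were treated 4 h with compound and doxycycline, then green and red light read after Chroma-Glo addition.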

Where [1] appears, read: measured here: control luc red channel unless noted.

For orientation: AC50 means the concentration at which the activity in the assay is half-maximal. As to `CCCCc1nn2c(=O)cc(COC(=O)c3cccc(NC(=O)c4cccc(Cl)c4)c3)nc2s1`, the AC50 under setting [1] is 2.51 µM [falling, full curve].

Consider `COc1ccc(CCCc2nnc(SCC(=O)Nc3cccc(C)c3)o2)cc1C`, for which, under setting [1], the AC50 is 7.94 µM [falling, full curve].

In the case of `Cc1cccc(N2CCN(S(=O)(=O)c3cn(C)c(C)n3)CC2)c1C`, under setting [1], the AC50 is 0.794 µM [rising, single point].

Regarding `CCOc1ccccc1C(=O)Oc1c(S(=O)(=O)c2ccc(C)cc2)c(C)nn1-c1ccccc1`, under setting [1], the AC50 is 7.94 µM [falling, full curve].

Regarding `COc1ccc(N(C)C(=O)c2nn(-c3ccc(C)cc3)c(=O)n(C)c2=O)c(OC)c1`, the AC50 under setting [1] was 0.00501 µM [falling, full curve, poor fit].

Consider `Cc1cc(C)cc(NC(=O)N2CCC(C(N)=O)(N3CCCCC3)CC2)c1`, for which the AC50 under setting [1] was 39.8 µM [falling, single point].

As to `COc1cc(C(c2nnnn2C(C)(C)C)N2CCN(c3nc4ccccc4s3)CC2)ccc1O` (centres undefined), under setting [1], the concentration at half-maximal activity (AC50) is 39.8 µM [rising, single point] [measured here: IkB-luc green channel].

With `COc1ccc(C(=O)COC(=O)CCn2nnc(-c3cccc(O)c3OC)n2)cc1`, the concentration at half-maximal activity (AC50) under setting [1] was 1.26 µM [falling, full curve] [measured here: IkB-luc green channel].

Turning to `COc1ccc(N2CC(NC(=O)C(=O)c3c[nH]c4ccccc34)CC2=O)cc1` (centres undefined), under setting [1], the AC50 was 39.8 µM [falling, single point].

Regarding `CCN(CC)c1cc(C)c2cc(NC(=O)/C=C/c3ccccc3Cl)ccc2n1`, the AC50 under setting [1] is 7.94 µM [falling, partial curve].

Consider `COc1ccc(CNC(=O)CC(C)n2nc(C)cc2C)cc1` (centres undefined), for which the AC50 under setting [1] was 0.501 µM [falling, partial curve].

`O=C(CCSCc1cccc(Cl)c1)NCc1ccccc1Cl`: under setting [1], the concentration at half-maximal activity (AC50) is 15.8 µM [falling, partial curve].

Regarding `CN1C(=O)c2ccc(NC(=O)c3c(F)c(F)c(F)c(F)c3F)cc2C1=O`, the AC50 under setting [1] was 7.94 µM [falling, full curve].

Regarding `O=c1c(N2CCN(c3ccccc3)CC2)csc2ccc(Cl)cc12`, under setting [1], the AC50 is 20 µM [falling, partial curve].

As to `CCOCCn1ccc2c(OCC(=O)NCc3ccc(F)cc3)cccc2c1=O`, the AC50 under setting [1] is 6.31 µM [rising, partial curve].

In the case of `COCCn1c(=O)[nH]c2cc(C(=O)N3CCN(c4ccc(Cl)cc4)CC3)ccc2c1=O`, the AC50 under setting [1] was 12.6 µM [falling, partial curve].

For the compound `Cc1ccc(C)c(N2CCN(C(=O)CCCn3c(=S)[nH]c4cc5c(cc4c3=O)OCO5)CC2)c1`, the AC50 under setting [1] was 3.98 µM [falling, full curve, poor fit].

Consider `Cc1ccc(CN2CCC(CNC(=O)c3cnn(-c4ccccc4)c3C3CCN(C(=O)OC(C)(C)C)CC3)CC2)cc1`, for which the AC50 under setting [1] is 12.6 µM [falling, partial curve].

In the case of `COc1ccc(NC(=O)c2oc3ccc(S(=O)(=O)N4CCCCC4)cc3c2C)cc1Cl`, the AC50 under setting [1] was 7.94 µM [falling, partial curve].

As for `COc1ccc(NC(=O)c2cc(C(C)=O)n3ccccc23)cc1`, under setting [1], the AC50 is 10 µM [rising, partial curve] [measured here: IkB-luc green channel].

Take `N#CC1=C(N)SC(N)=C(C#N)C1c1cccc(Oc2ccccc2)c1`: the AC50 under setting [1] was 31.6 µM [rising, partial curve] [measured here: IkB-luc green channel].

On to `CCOc1cc2[nH]c(=O)n(Cc3ccc(C(=O)N4CCN(c5ccccc5)CC4)cc3)c(=O)c2cc1OCC`, for which the half-maximal activity concentration (AC50) under setting [1] was 25.1 µM [falling, single point].

In the case of `COc1cc2c(=O)n(Cc3ccco3)c(=O)n(CC(=O)Nc3ccc(F)cc3)c2cc1OC`, the AC50 under setting [1] was 12.6 µM [falling, partial curve].

For `Cc1nc(-c2ccc(Cl)cc2)sc1CCNC(=O)C(=O)Nc1ccc2c(c1)OCCO2`, the concentration at half-maximal activity (AC50) under setting [1] is 0.02 µM [rising, full curve].

On to `O=C(CSc1nc(=O)n(Cc2cccnc2)c2c1CCC2)Nc1cccc(Cl)c1`, for which the AC50 under setting [1] was 10 µM [falling, partial curve].

As to `Cc1ccc(Nc2nc(CSc3nnc(-c4cccs4)o3)cs2)cc1`, the AC50 under setting [1] was 25.1 µM [falling, single point].

As for `COc1cccc(-n2c(=O)c3c(C)c(C(=O)N(C)C)sc3n(Cc3cccc(C)c3)c2=O)c1`, the AC50 under setting [1] was 3.16 µM [rising, full curve].

Regarding `COc1ccc(-c2nc(C)c(CCNC(=O)C(=O)Nc3ccccc3F)s2)cc1`, the AC50 under setting [1] is 1.26 µM [rising, full curve].

As for `O=C(CNC(=O)c1ccccc1C(=O)O)c1ccccc1`, the AC50 under setting [1] is 1 µM [falling, partial curve].

Turning to `COc1ccc(CCN2CCC(CNC(=O)c3cnn(-c4ccc(C)cc4)c3C3CCN(C(=O)OC(C)(C)C)CC3)CC2)cc1`, under setting [1], the AC50 is 25.1 µM [falling, single point].

`CC(=O)Nc1cccc(NC(=O)CSc2ncc(-c3ccc(Cl)cc3)n2Cc2ccco2)c1`: the AC50 under setting [1] is 7.94 µM [falling, full curve].

Regarding `COc1ccc(C2CC(=O)N(Cc3ccccc3C)c3c2c(C)nn3-c2nc(C)cc(C)n2)c(OC)c1` (centres undefined), the AC50 under setting [1] was 12.6 µM [falling, single point].

For `COc1ccc(-c2nc3c4ccccc4n(CC(=O)Nc4ccc(C(C)C)cc4)c(=O)n3n2)cc1`, under setting [1], the AC50 is 3.98 µM [rising, single point].

`O=C(c1cccc(-c2nnc(-c3ccccc3)o2)c1)N1CCCCC1`: the AC50 under setting [1] was 31.6 µM [falling, single point].

Turning to `Cc1ccccc1-n1c(SCC(=O)Nc2ccc(Cl)cc2Cl)nc(O)cc1=O`, under setting [1], the AC50 is 20 µM [falling, single point].

Consider `Cc1cccc(N(C)S(=O)(=O)c2ccc(-c3cc(C)no3)s2)c1`, for which the AC50 is 15.8 µM [rising, partial curve] (measured here: IkB-luc green channel) and 3.16 µM [rising, partial curve] (measured here: control luc red channel).

Take `CCc1sc(Nc2cccc(C)c2)nc1-c1cc2cccc(OC)c2oc1=O`: the AC50 under setting [1] is 7.94 µM [falling, full curve].

For the compound `Cc1ccc(S(=O)(=O)N2CCc3cc(C(=O)N(C)Cc4ccccc4)ccc32)cc1`, the AC50 under setting [1] was 25.1 µM [falling, single point].
